PubChem BioAssay AID686938, Drosophila RNAi Screening Center, 2013
In all, the deposit lists about 23,000 reagents; shown is an unselected part of those that have a named target and a result. Over the whole deposit, 75 (0.33%) are marked active. 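Raw plate signals without normalisation; calls rest on plate z-scores that were not deposited; ratio present for only 364 wells.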 Names joined by + are all predicted targets of the reagent. Reagent sequences are not shown. The record does not give: the dose of the treatment.

Aim: 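Looking for CRAC channel components and the factors controlling them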 (primary screen)
Cells: Drosophila S2R+ cells
Knock-down reagent: long dsRNA against Drosophila genes, about 0.25 µg dsRNA per well, roughly 10,000 cells
Timing: 5 days of knock-down before the calcium assay
Treatment: thapsigargin (SERCA pump blocker) to empty calcium stores; entry signal taken 4 min after adding it
Measurement: 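Per-well fluo-4 fluorescence in two replicates, unnormalised, measured in resting cells and 4 min after store depletion by the SERCA blocker thapsigargin; ratio of the two present in few wells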
Scale: calcium entry signal: higher = stronger calcium signal after store depletion; entry to resting ratio: higher = more calcium entry relative to resting level; resting calcium signal: higher = higher resting calcium signal
Rule for the call: 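Hit if the duplicate-averaged plate z-score for entry over resting signal is under −3; wells with weak total dye signal (Fmax z < −2) or more than 5 off-targets removed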
Calls: active = strongly reduced calcium entry; inactive = no strong reduction

| calcium entry signal, replicate 1 (fluorescence units) | calcium entry signal, replicate 2 (fluorescence units) | entry to resting ratio | resting calcium signal, replicate 1 (fluorescence units) | resting calcium signal, replicate 2 (fluorescence units) | call | target gene | DRSC id |
| --- | --- | --- | --- | --- | --- | --- | --- |
| 5.15e7 | 3.33e7 | – | 2.35e7 | 1.64e7 | inactive | Lamtor3 (Late endosomal/lysosomal adaptor, MAPK and MTOR activator 3) | DRSC02815 |
| 3.10e7 | – | – | 1.49e7 | – | inactive | Ance-5 | DRSC04055 |
| 3.25e7 | 4.35e7 | – | 1.59e7 | 2.93e7 | inactive | ppl (pumpless) | DRSC11899 |
| 3.17e7 | 4.19e7 | – | 1.69e7 | 1.96e7 | inactive | CG30056 | DRSC21752 |
| 4.02e7 | 4.20e7 | 2.4 | 1.68e7 | 1.84e7 | inactive | y (yellow) | DRSC18853 |
| 3.90e7 | 3.07e7 | – | 2.13e7 | 1.52e7 | inactive | CG1265 | DRSC08288 |
| 4.60e7 | – | – | 2.18e7 | – | inactive | TyrRS-m (Tyrosyl-tRNA synthetase, mitochondrial) | DRSC04286 |
| 3.20e7 | 3.14e7 | – | 1.47e7 | 1.34e7 | inactive | CG1172 + Or83a | DRSC12357 |
| 3.43e7 | 3.69e7 | – | 1.66e7 | 1.69e7 | inactive | CG11756 | DRSC19424 |
| 4.95e7 | – | – | 2.39e7 | – | inactive | hll (heimdall) | DRSC01944 |
| 4.06e7 | 4.44e7 | – | 1.90e7 | 1.90e7 | inactive | gNacalpha | DRSC00654 |
| 3.10e7 | 5.10e7 | – | 1.56e7 | 2.16e7 | inactive | siz (schizo) | DRSC11622 |
| 3.41e7 | 4.57e7 | – | 1.76e7 | 1.95e7 | inactive | siz (schizo) | DRSC11689 |
| 3.28e7 | 5.49e7 | – | 1.55e7 | 1.98e7 | inactive | siz (schizo) | DRSC11690 |
| 4.08e7 | 2.69e7 | – | 2.78e7 | 1.13e7 | inactive | cert (ceramide transfer protein) | DRSC09674 |
| 2.90e7 | 4.63e7 | – | 1.55e7 | 1.88e7 | inactive | CG5003 | DRSC15694 |
| 4.25e7 | 2.62e7 | – | 1.65e7 | 1.26e7 | inactive | CG34280 | DRSC13229 |
| 4.09e7 | 2.83e7 | – | 1.86e7 | 1.40e7 | inactive | Obp83a (Odorant-binding protein 83a) | DRSC12362 |
| 2.06e7 | 2.68e7 | – | 1.11e7 | 4.44e7 | inactive | CG14892 | DRSC15014 |
| 4.46e7 | 4.66e7 | – | 2.28e7 | 2.20e7 | inactive | GlyT (Glycine transporter) | DRSC04512 |
| 4.30e7 | 1.97e7 | – | 1.92e7 | 9.66e6 | inactive | Octalpha2R (alpha2-adrenergic-like octopamine receptor) | DRSC13319 |
| 2.84e7 | 3.81e7 | – | 3.45e7 | 1.59e7 | inactive | Octalpha2R (alpha2-adrenergic-like octopamine receptor) | DRSC15314 |
| 4.41e7 | 4.84e7 | – | 5.91e7 | 2.22e7 | inactive | CG7142 | DRSC16204 |
| 2.60e7 | 4.27e7 | – | 1.35e7 | 1.86e7 | inactive | nudE | DRSC09000 |
| 3.10e7 | 4.58e7 | – | 1.67e7 | 2.13e7 | inactive | nudE | DRSC10962 |
| 6.78e7 | 2.25e7 | – | 3.37e7 | 1.21e7 | inactive | CG33771 | DRSC11718 |
| 3.50e7 | 4.94e7 | – | 1.81e7 | 2.14e7 | inactive | Mtmr6 (Myotubularin related protein 6) | DRSC04046 |
| 2.49e7 | 4.03e7 | – | 1.15e7 | 1.55e7 | inactive | Usp7 (Ubiquitin-specific protease 7) | DRSC18909 |
| 4.57e7 | 6.75e7 | – | 2.16e7 | 3.07e7 | inactive | Usp7 (Ubiquitin-specific protease 7) | DRSC19604 |
| 5.10e7 | 5.30e7 | – | 2.47e7 | 2.28e7 | inactive | CG10834 | DRSC03693 |
| 2.01e7 | 4.18e7 | – | 9.93e6 | 5.38e7 | inactive | Recs1 | DRSC16545 |
| 4.82e7 | 3.78e7 | – | 3.25e7 | 1.63e7 | inactive | ens (ensconsin) | DRSC08454 |
| 3.91e7 | 4.99e7 | – | 1.75e7 | 2.22e7 | inactive | CG6362 | DRSC07413 |
| 3.52e7 | 5.24e7 | – | 1.57e7 | 3.49e7 | inactive | Suv3 (Suv3 helicase) | DRSC12335 |
| 4.56e7 | 5.62e7 | – | 2.39e7 | 2.65e7 | inactive | mesh | DRSC14472 |
| 3.96e7 | 6.26e7 | – | 1.95e7 | 2.49e7 | inactive | mesh | DRSC15098 |
| 4.03e7 | 5.39e7 | – | 2.03e7 | 2.39e7 | inactive | mesh | DRSC15099 |
| 4.16e7 | – | – | 2.08e7 | – | inactive | CG4230 | DRSC02740 |
| 1.52e7 | 1.66e7 | – | 9.06e6 | 3.82e7 | inactive | Act88F (Actin 88F) | DRSC14105 |
| 4.47e7 | 3.42e7 | – | 2.15e7 | 1.59e7 | inactive | MTA1-like (Metastasis associated 1-like) | DRSC12382 |
| 2.78e7 | 5.43e7 | – | 1.35e7 | 2.98e7 | inactive | MTA1-like (Metastasis associated 1-like) | DRSC22022 |

Records listed so far whose gene name starts with U or u:
| calcium entry signal, replicate 1 (fluorescence units) | calcium entry signal, replicate 2 (fluorescence units) | entry to resting ratio | resting calcium signal, replicate 1 (fluorescence units) | resting calcium signal, replicate 2 (fluorescence units) | call | target gene | DRSC id |
| --- | --- | --- | --- | --- | --- | --- | --- |
| 2.49e7 | 4.03e7 | – | 1.15e7 | 1.55e7 | inactive | Usp7 (Ubiquitin-specific protease 7) | DRSC18909 |
| 4.57e7 | 6.75e7 | – | 2.16e7 | 3.07e7 | inactive | Usp7 (Ubiquitin-specific protease 7) | DRSC19604 |
